Data as given in PubChem BioAssay AID1259254 (NCATS, 2017)

Aim: 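Finding genes that stop cells copying their DNA twice in one cycle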 (primary screen)
Cell system: human HCT116 colorectal cancer cells
Knock-down reagent: single siRNA against human genes
Time to read-out: 3 days
Read-out: 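Imaged Hoechst DNA stain sorts each cell into a cycle phase by DNA amount; per plate, G2 fraction set to 0% for non-targeting and 100% for GMNN siRNA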
Direction: G2 robust z-score: higher = more G2 cells, more excess DNA replication
Hit rule: 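Active siRNAs have a G2 robust z of 5 or more median absolute deviations over the median, which in these data means about 38% or higher of GMNN control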
This is one part, drawn at random, of about 59,000 reagents tested. About 1,550 of them (2.6%) count as active. 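G2 share is only a proxy for re-replication; each gene was hit by three separate siRNAs, and active genes were retested.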 Reagents against one gene are numbered here. Further read-outs or replicates are left out here. The record does not give: the amount of reagent.

Against PURA (GeneID 5813) #1, the entry reads G2 robust z-score -1.38; inactive.
For PURA (GeneID 5813) #2, the values are G2 robust z-score -0.684; inactive.
Depletion of PURA (GeneID 5813) #3 came out at: G2 robust z-score -1.06; inactive.
PNPLA1 (GeneID 285848) #1 scored G2 robust z-score 0.0815; inactive.
Against PNPLA1 (GeneID 285848) #2, the values are G2 robust z-score -1.15; inactive.
PNPLA1 (GeneID 285848) #3 gave G2 robust z-score -1.64; inactive.
PPDPFL (GeneID 492307) #1 gave G2 robust z-score 1.59; inactive.
For PPDPFL (GeneID 492307) #2, the values are G2 robust z-score -1.04; inactive.
After knock-down of PPDPFL (GeneID 492307) #3, the record shows G2 robust z-score -0.126; inactive.
Knock-down of DCAKD (GeneID 79877) #1 came out at: G2 robust z-score -0.949; inactive.
For DCAKD (GeneID 79877) #2 the deposit lists G2 robust z-score -1.36; inactive.
After knock-down of DCAKD (GeneID 79877) #3, the screen gave G2 robust z-score -0.301; inactive.

Laid out differently: entries from further up.
{"target gene": "DCAKD (GeneID 79877)", "reagent": 2, "G2 robust z-score": -1.36, "activity call": "inactive"}
{"target gene": "DCAKD (GeneID 79877)", "reagent": 3, "G2 robust z-score": -0.301, "activity call": "inactive"}
